Earlier results in patent US20230265378A1, “STIMULATING CELLULAR PRODUCTION OF EXOSOMES” (ROYAL MELBOURNE INSTITUTE OF TECHNOLOGY, priority 2020, published 2023).
Some results were stated once for a whole list of compounds, not compound by compound.

Test system: cells
Details: approximately; within 2 to 72 hrs; cited from earlier work

Compound: C[C@H](CCC(=O)O)C[C@H](C)C[C@H](C)C(=O)/C=C(\O)[C@H](C)C[C@H](C)C/C=C/[C@@H](C)[C@@H](O)[C@@H](C)[C@@H](O)C[C@@H]1CC[C@@](C)([C@H]2CC[C@@](C)([C@@H](C)O)O2)O1 [ionomycin]
- exosome yield per hour: 0.03-1 fold/hr
